According to patent US20250122301A1 (IBIO, published 2025):
Results are given in words; binding and its absence hold for the method and conditions named. Some results given as binding are weak or reduced against the parent protein; the word gives no strength.

Amino acid sequences for entries named in this document (tags omitted). A change or cut given only in a name is not applied to a line headed by its entry. Chains listed by the source or under a name are the forms on record and can include a tag or linker. Residues count along the entry.
UniProt P01589: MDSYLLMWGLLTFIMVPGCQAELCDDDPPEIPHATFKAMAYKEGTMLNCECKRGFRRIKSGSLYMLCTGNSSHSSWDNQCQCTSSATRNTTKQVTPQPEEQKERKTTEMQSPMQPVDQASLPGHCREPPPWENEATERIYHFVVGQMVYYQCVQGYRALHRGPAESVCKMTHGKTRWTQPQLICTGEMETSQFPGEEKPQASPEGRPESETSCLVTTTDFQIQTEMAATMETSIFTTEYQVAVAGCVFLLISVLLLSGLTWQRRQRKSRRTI
CD25 on CD25+ cells (SUDHL-1, HEK IL-2 reporter cells, primary human regulatory T cells): residues 22-272 of P01589
full-length CD25 (human CD25, recombinant protein used on biosensors): residues 22-213 of P01589
recombinant cynomolgus monkey (cyno) CD25 (H6WS54, form named): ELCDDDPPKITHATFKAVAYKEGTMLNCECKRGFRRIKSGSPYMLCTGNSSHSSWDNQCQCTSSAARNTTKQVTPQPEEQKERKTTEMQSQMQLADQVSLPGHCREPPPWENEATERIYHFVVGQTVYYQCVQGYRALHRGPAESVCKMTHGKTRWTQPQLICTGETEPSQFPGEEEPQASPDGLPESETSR

Legend:
[1] = target: CD25 on CD25+ cells (SUDHL-1, HEK IL-2 reporter cells, primary human regulatory T cells) (human) (UniProt P01589); assay: flow cytometry, SUDHL-1 and HEK IL-2 reporter cells
[2] = target: CD25 on CD25+ cells (SUDHL-1, HEK IL-2 reporter cells, primary human regulatory T cells) (human) (UniProt P01589); assay: flow cytometry dose response, SUDHL-1 cells (CD25+)
[3] = target: full-length CD25 (human CD25, recombinant protein used on biosensors) (human) (UniProt P01589); assay: BLI (Octet RED384): antibody on AR2G sensor, 300 nM full-length CD25, 1:1 fit
[4] = target: recombinant cynomolgus monkey (cyno) CD25 (cynomolgus monkey) (UniProt H6WS54); assay: ELISA on coated recombinant cyno CD25, OD450
[5] = target: full-length CD25 (human CD25, recombinant protein used on biosensors) (human) (UniProt P01589); assay: Octet BLI, IgG1 immobilised on AR2G, 300 nM full-length CD25
[6] = target: full-length CD25 (human CD25, recombinant protein used on biosensors) (human) (UniProt P01589); assay: BLI (Octet) sandwich binning: antibody on AR2G sensor, full-length CD25, then competitor
[7] = target: full-length CD25 (human CD25, recombinant protein used on biosensors) (human) (UniProt P01589); assay: Octet, CD25 captured on 7G7B6-coated tip, then Fab
[8] = target: full-length CD25 (human CD25, recombinant protein used on biosensors) (human) (UniProt P01589); assay: BLI (Octet): 7G7B6 on tip, CD25 captured, then Fab or Basiliximab, then buffer
[9] = target: CD25 on CD25+ cells (SUDHL-1, HEK IL-2 reporter cells, primary human regulatory T cells) (human) (UniProt P01589); assay: flow cytometry, 10 ug/mL antibody, SUDHL-1 cells (CD25+)
[10] = target: CD25 on CD25+ cells (SUDHL-1, HEK IL-2 reporter cells, primary human regulatory T cells) (human) (UniProt P01589); assay: flow cytometry, 10 ug/mL antibody, HEK IL-2 reporter cells (CD25+)
[11] = target: full-length CD25 (human CD25, recombinant protein used on biosensors) (human) (UniProt P01589); assay: BLI (Octet) cross block: CD25 on tip, Fab step, then IL-2 step

Measured: binding

B1: BP003-T2P1C4 (human IgG1 reformatted) (antibody, V domains shown)
VH: QVQLQQSGAELVRPGTSVKISCKASGYTFTNYWLGWVKQRPGHGLEWIGDIYPGGGYTNYNEKFKGKATLTADTSSSTAYMQLSSLTSEDSAVYFCARVTPASWGQGTTVTVSS
VL: DIQMTQSQKFMSASVGDRVSVTCKASQNVGTNVAWYQQKPGQSPKALIYSASYRYSGVPDRFTGSGSGTDFTLTISNVQSEDLAEYFCQQYNSYPYTFGGGTKLEMK
binds: [1] | [2] | [3]

B2: BP003-T2P1E3 (human IgG1 reformatted) (antibody, V domains shown)
VH: QIQLQQSGAELVRPGTSVKMSCKAAGYTFTNYWIGWVKQRPGHGLEWIGDIHPGGGYTNYNEKFKGKATLTADTSSSTAYMQLSSLTSEDSAIYYCTSRNFAYWGQGTPVTVSS
VL: DIVLTQSQKFMSTSVGDRVSVTCKASQNVGTNVAWYQQKPGQSPKALIYSASYRYSGVPDRFTGSGSGTDFTLTISNVQSEDLAEYFCQQYNSYPYTFGGGTKLEIK
binds: [4] | [1] | [2] | [3]

B3: AH04527 (human IgG1 reformatted) (antibody, V domains shown)
VH: QVQLQQSGAELVRPGTSVKMSCKAAGYTFTNYWIGWVKQRPGHGLEWIGDIHPGGGYIDYNEKFTGKATLTADTSSSTAYMQLSSLTSEDSAIYYCVSRNFAKWGQGTLVTVSA
VL: DVVMTQSQKFMSTSVGDRVSVTCKASQNVGTNVAWYQQKPGQSPKALIYSASYRYSGVPDRFTGSGSGTDFTLTISNVQSEDLAEYFCQQYNSYPYTFGGGTKLEIK
binds: [5] | [3] | [6]

B4: D16 Fab (Fab, V domains shown)
VH: QVQMQQSGAELVRPGTSVKISCKASGYTFTNYWLGWVKQRPGHGLEWIGDIYPGGGYTNYNEKFKGKATLTADTSSSTAYMQLSSLTSEDSAVYFCARVTPASWGQGTTLTVSS
VL: DIQMTQSQKFMSTSVGDRVSVTCKASQNVGTNVAWYQQKPGQSPKALIYSASYRYSGVPDRFTGSGSGTDFTLTISNVQSEDLAEYFCQQYNSYPWTFGGGTKLEIK
notes: Fab; also called Fab clone D16
binds: [7] | [8]

B5: BP003-T2P1D10 (human IgG1 reformatted) (antibody, V domains shown)
VH: QIQLQQPGAELVRPGTSVKISCKASGYTFTNYWLGWVKQRPGHGLEWIGDIYPGGGYTNYNEKFKGKATLTADTSSSTAYMQLSSLTSEDSAVYFCARVTPASWGQGTSLTVSS
VL: DIVITQSQKFMSTSVGDRVSVTCKASQNVGTNVAWYQQKPGQSPKALIYSASYRYSGVPDRLTGSGSGTDFTLTISNVQSEDLAEYFCQQYNRYPYTFGGGTKLEIK
binds: [4] | [1] | [2] | [9] | [10] | [3]

B6: D17 Fab (Fab, V domains shown)
VH: QIQLQQSGAELVRPGTSVKISCKASGYTFTNYWLGWVKQRPGHGLEWIGDIYPGGGYTNYNEKFKGKATLTADTSSSTAYMQLSSLTSEDSAVYFCARVTPASWGQGTTLTVSA
VL: DILLTQSQKFMSTSVGDRVSVTCKASQNVGTNVAWYQQKPGQSPKALIYSASYRYSGVPDRFTGSGSGTDFTLTISNVQSEDLAEYFCQQYNSYPLTFGGGTKLEIK
notes: Fab; also called Fab clone D17
binds: [7] | [11]

B7: AH04750 (human IgG1 reformatted) (antibody, V domains shown)
VH: QVQLQQPGAEMAKPGASVKMSCKASGYTSTAYWIHWVKQRPGQGLEWIGYITPSTGYTEYNQKFEDKATLTADKSSNTAYMQLNSLTSEDSAVYYCARGGYFDYWGQGTTVTVSS
VL: DIQMTQTTSSLSASLGDRVTISCRASQDISNYLNWYQQKPDGTVKLLIYYTSRLHSGVPSRFSGSGSGTDYSLTISNLEQEDIATYFCQQGNTLPPTFGGGTKLEMK
binds: [1] | [2] | [5] | [9] | [10] | [3]

B8: AH05256 (human IgG1 reformatted) (antibody, V domains shown)
VH: QVQLQQPGAELAKPGASVKMSCKASGYTFTRYWIHWVKQRPGQDLEWIGYINPRTDYTEYNQKFKDKATLTADKSSSTAYMQLSSLTSDDSAVYYCARHGYFDYWGQGTTLTVSS
VL: DIQMTQTTSSLSASLGDRVTISCRASQDISNYLNWYQQKPDGTVKLLIYHTSRLQSGVPSRFTGSGSGTDYSLTISNLEQEDIATYFCQQSNSLPPTFGGGTKLEIK
binds: [1] | [2] | [5] | [9] | [10] | [3] | [6]

B9: AH05268 (human IgG1 reformatted) (antibody, V domains shown)
VH: QVQLQQSGAELVRPGVSLKISCKGSGYTFTDYAMHWVRQSHAKSLEWIGVISTYSGDALYNQKFKGKATMTVDKSSSTAYLELARLTSDDSAIYYCARGVTFDYWGQGTTLTVSS
VL: DVQMTQSPSSMYASLGERVTFTCKASQDINRYLSWFQQKPGKSPKTLIYRANRLVDGVPSRFSGSGSGQNYSLTISSLEYEDMGIYYCLQYDEFPYTFGGGTKLEIK
binds: [1] | [2] | [5] | [9] | [10] | [3]

B10: BP003-T2P1D1 (human IgG1 reformatted) (antibody, V domains shown)
VH: QVQLQQSGAELVRPGVSLKISCKGSGYTFTDYAMHWVRQSHAKSLEWIGVISTYSGDAIYNQKFKGKATMTVDKSSSTAYLELARLTSDDSAIYYCARGVTFDYWGQGTTVTVSS
VL: DVVMTQSPASLSASVGETVTITCRASENSYSYLEWYQQKQGKSPQLLVYNAKTLAEGVPSRFSGSGSGTQFSLKINSLQPEDFGTYYCQHHYGTPYTFGGGTKLEIK
binds: [1] | [5] | [9] | [10] | [3]

B11: D34 (human IgG1 reformatted) (antibody, V domains shown)
VH: QVQLQQSGAELVRPGVSVKISCKGSGYTFTDYAMHWVKQSHAKSLEWIGVISTYSGDVSYNQKFKGKATMTVDKSSSTAYMELARLTSEDSAIYYCARGVTFDSWGQGTTVTVSS
VL: DIQMTQSPASLSASVGETVTITCRASENSYSYLEWYQQKQGKSPQLLVYNAKTLAEGVPSRFSGSGSGTQFSLKINSLQPEDFGTYYCQHHYGTPYTFGGGTKLEIK
binds: [4] | [5] | [3] | [6]

B12: D11 Fab (Fab, V domains shown)
VH: QIQLQQPGAELVRPGVSLKISCKGSGYTFTDYAMHWVRQSHAKSLEWIGVISTYSGDAIYNQKFKGKATMTVDKSSSTAYLELARLTSDDSAIYYCARGVTFDYWGQGTTVTVSS
VL: DIQMTQTTSSLSASLGDRVTITCRASQDISNYLEWYQQKQGKSPQLLVYNAKTLAEGVPSRFSGSGSGTQFSLKINSLQPEDFGSYYCQHHYDTPYTFGGGTKLEIK
notes: Fab; also called Fab clone D11
binds: [11]

B13: AH05251 (human IgG1 reformatted) (antibody, V domains shown)
VH: EVRLQQSGAELVRSGASVKLSCTASGFNIKDYYIHWVKQRPEQGLEWIGWIDPDNGETEYAPKFQGKATMTADTSSNTAHLQLSSLTSEDTAVYYCTVFWYGNNYAGFAYWGQGTLVTVSS
VL: DVVMTQTPLSLPVNLGDQASISCRSSQSIVHSNGNTYLEWYLQKPGQSPKLLIYKVSNRFSGVPDRFSGSGSGTDFTLKISRVEAEDLGIYYCFQGSHVPPTFGGGTKLEIK
binds: [1] | [5] | [9] | [10] | [3] | [6]

B14: BP003-T2P1D7 (human IgG1 reformatted) (antibody, V domains shown)
VH: QAYLQQSGAELVRSGASVKLSCTASGFNIKDYYIHWVKQRPEQGLEWIGWIDPDNGETEYAPKFQGKATMTADTSSNTAHLQLSSLTSEDTAVYYCTVFWYGNNYAGFAYWGQGTLVTVSA
VL: DVVLTQTPLSLPVSLGDQASISCRSSQSIVHSNGNTYLEWYLQKPGQSPKLLIYKVSNRFSGVPDRFSGSGSGTDFTLKISKVEAEDLGVYYCFQGSHVPPTFGGGTKLEIK
binds: [4] | [1] | [2] | [5] | [10] | [3]
